Test results from paper PMC3395832.
Results are given in words; binding and its absence hold for the method and conditions named. In cells and extracts the contact can be indirect. Some results given as binding are weak or reduced against the parent protein; the word gives no strength.

Sequences of proteins named here, by UniProt entry; tags and fusion partners are left off.
UniProt F5HCV3: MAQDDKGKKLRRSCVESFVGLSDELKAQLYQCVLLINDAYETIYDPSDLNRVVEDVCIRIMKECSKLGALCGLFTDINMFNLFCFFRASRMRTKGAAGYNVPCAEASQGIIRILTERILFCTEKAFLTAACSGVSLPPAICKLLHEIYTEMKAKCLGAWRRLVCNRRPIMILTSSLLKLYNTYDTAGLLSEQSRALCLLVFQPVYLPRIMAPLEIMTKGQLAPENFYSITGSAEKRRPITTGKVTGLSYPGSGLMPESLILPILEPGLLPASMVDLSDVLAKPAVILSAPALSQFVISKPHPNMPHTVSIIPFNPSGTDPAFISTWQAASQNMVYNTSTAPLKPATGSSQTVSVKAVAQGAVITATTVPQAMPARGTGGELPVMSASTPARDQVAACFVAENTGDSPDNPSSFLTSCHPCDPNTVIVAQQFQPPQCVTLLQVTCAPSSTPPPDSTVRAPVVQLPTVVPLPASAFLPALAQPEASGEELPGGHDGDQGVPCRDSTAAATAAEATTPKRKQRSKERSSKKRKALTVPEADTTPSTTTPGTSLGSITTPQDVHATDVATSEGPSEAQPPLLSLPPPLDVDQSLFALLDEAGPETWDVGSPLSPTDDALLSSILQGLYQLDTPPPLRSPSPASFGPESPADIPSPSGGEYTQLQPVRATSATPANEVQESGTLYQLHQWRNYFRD
UniProt Q13547: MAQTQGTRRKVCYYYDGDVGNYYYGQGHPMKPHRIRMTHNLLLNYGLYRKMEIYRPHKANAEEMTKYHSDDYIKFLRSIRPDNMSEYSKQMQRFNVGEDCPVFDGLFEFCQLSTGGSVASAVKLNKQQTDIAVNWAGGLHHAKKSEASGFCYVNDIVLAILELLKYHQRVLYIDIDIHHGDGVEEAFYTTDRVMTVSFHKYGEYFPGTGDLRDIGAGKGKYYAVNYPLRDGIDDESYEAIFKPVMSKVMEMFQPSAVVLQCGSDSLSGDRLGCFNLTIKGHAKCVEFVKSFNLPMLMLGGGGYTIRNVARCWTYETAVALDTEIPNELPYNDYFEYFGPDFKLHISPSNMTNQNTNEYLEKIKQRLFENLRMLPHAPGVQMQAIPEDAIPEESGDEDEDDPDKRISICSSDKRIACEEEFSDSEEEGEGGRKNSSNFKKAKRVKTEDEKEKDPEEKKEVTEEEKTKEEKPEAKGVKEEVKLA
UniProt P09874: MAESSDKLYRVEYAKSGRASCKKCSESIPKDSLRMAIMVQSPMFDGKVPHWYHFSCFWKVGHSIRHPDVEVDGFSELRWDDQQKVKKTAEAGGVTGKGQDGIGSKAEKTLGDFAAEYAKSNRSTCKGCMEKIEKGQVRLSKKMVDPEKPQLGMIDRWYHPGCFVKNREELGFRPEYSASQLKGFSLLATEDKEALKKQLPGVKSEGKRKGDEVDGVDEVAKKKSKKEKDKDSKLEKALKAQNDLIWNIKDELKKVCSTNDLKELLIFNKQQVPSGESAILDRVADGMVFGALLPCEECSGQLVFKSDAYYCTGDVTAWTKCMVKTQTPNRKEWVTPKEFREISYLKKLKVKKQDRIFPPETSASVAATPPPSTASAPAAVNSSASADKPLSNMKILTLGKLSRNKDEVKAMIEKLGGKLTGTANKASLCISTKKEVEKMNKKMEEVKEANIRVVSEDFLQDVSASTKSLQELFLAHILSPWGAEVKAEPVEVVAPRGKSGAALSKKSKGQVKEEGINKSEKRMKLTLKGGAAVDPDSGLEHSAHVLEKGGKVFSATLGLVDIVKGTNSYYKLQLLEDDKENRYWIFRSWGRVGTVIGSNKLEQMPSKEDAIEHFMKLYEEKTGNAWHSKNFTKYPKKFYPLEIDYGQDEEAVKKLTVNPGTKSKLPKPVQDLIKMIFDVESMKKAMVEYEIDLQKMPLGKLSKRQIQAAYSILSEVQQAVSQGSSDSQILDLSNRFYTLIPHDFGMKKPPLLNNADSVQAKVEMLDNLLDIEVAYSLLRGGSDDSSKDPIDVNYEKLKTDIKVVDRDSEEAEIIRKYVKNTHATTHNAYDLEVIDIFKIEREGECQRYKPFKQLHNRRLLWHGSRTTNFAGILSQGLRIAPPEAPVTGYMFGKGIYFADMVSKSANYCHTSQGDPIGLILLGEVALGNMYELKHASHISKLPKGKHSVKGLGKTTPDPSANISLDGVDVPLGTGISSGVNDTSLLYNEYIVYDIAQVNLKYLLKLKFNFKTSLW

How the values were obtained:
[1] = target: FLAG-tagged KSHV replication and transcription activator (K-RTA), wild type (Kaposi's sarcoma-associated herpesvirus (KSHV)) (UniProt F5HCV3); test: co-IP
[2] = target: K-RTA expressed from the KSHV genome in ERKV cells (Kaposi's sarcoma-associated herpesvirus (KSHV)) (UniProt F5HCV3); test: co-IP

Substance | binding [1] | binding [2]
HDAC1 (from UniProt Q13547 1-482) (enzyme) | binds | –
PARP1 (from UniProt P09874 1-1014) (enzyme) | binds | binds
